Our source for the growth values is the supplement of paper PMC12494721.

Structures can show the parent of a compound that is named as a salt. Shown are results outside the selection of lowest values, which stands elsewhere.

What all share (experiment): growth (OD595) fold change vs plate DMSO controls (fold change (ratio)); higher = more growth
Common to all, as to details: 20 µM; incubation time: 27 h, anaerobic, 37 °C

Test [1] deals with Clostridium sporogenes DSM 1664. A digest of the protocol:
(§1)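 After 27 h at 37 °C under anaerobic conditions, 96-well cultures in mGAM were shaken and read at 595 nm. The readings were blank-subtracted, corrected for compound background using 20 µM compound solutions in water, and converted to OD with a calibration factor of 5. Growth is defined as the fold change over the median of DMSO controls on each plate. Fold changes above 1.5 were set to NA, and each value is the mean of 2 biological replicates.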

The subject of test [2] is Escherichia coli IAI1. A digest of the protocol: as §1
Test [3] concerns Klebsiella aerogenes DSM 30053. The procedure, abridged:
as §1

Test [4] concerns Ruminococcus gnavus DSM 108212. A digest of the protocol: as §1

As for `CCC(C)C(C(=O)OCC[N+](C)(CC)CC)c1ccccc1` (stereo not drawn) [Valethamate bromide], the growth was 1.01 in test [1], 1.02 in test [2], 0.996 in test [3] and 0.896 in test [4].

On to `CN1[C@@H]2CC[C@H]1CC(OC(=O)C(O)c1ccccc1)C2` (mixture of isomers) [(R,S) Homatropine hydrobromide], for which the growth in test [1] amounted to 0.935; in test [2], 1.1; in test [3], 1.14; in test [4], 1.08.
